Results from patent US5885824A, “Recombinant genomic clone encoding the histamine H2 receptor, methods for production thereof, and protein produced therefrom” (The Regents of the University of Michigan, priority 1993, dated 1999).
At least one compound was matched to its structure with a doubt left.

Chains of the proteins cited; added tags and fusions are not shown.
UniProt P17124, whole entry: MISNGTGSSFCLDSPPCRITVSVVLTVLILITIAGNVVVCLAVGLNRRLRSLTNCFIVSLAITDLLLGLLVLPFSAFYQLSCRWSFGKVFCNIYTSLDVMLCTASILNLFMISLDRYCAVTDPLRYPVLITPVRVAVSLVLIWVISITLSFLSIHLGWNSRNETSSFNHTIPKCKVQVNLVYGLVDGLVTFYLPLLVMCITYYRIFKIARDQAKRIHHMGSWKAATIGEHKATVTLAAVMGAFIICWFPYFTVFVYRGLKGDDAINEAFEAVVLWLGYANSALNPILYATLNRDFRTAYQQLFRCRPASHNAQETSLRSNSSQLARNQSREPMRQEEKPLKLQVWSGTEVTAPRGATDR

Target: T1, canine histamine H2 receptor (Canis lupus familiaris, UniProt P17124)
T1 construct: cloning of the entire gene encoding a histamine H2 receptor using cDNA derived from mRNA isolated from a canine gastric cell source; expressed in transfected cells; host or cells: mouse L-cells, permanently transfected (CMVneo vector, G418 selection)
Assay: cyclic AMP content of L-cells transfected with CMVneo vector containing the canine histamine H2 receptor gene insert
Type: cell-based
Settings: doses as high as 10^-4 M

## C[N+](C)(C)CCOC(N)=O [carbamoylcholine]
  effect on cAMP content: no effect
